“And” between values parts separate entries of the source, which are not always exact repeats. Equal values may be shown once. The source gives many values for each of these; only a part stands here.
Tested on: C57BL/6 mice
Assay: Indirect calorimetry and exercise endurance under stepwise treadmill running
Format: in vivo, mouse
Details: for Fat oxodation / Gluocse oxdation: 30 mg/kg, individual mice 1-7; for CO2 Production (VCO2) / O2 Consumption (VO2) / Respiratory quotient: DS20060511 30 mg/kg, individual mice 1-7, Fig. 5a
Experimental: The mice were acclimatized to the treadmill by allowing them to run at 10 m min^−1 for 10 min on the day before the test. On the day of the test, the mice received oral administration of 30 mg kg^−1 of DS20060511 or vehicle 15 min before they were made to run. The treadmill was started at a velocity of 10 m min^−1, with the speed increased stepwise by 2 m min^−1 every 3 min, to assess the exercise endurance capacity as described previously. Measurements of the oxygen consumption (VO2) and exhaled carbon dioxide (VCO2) under treadmill running were conducted with the ARCO-2000 magnetic-type mass spectrometric calorimeter (ARCO System, Kashiwa, Japan) connected to the treadmill chamber (MB-2000, ARCO System). The RER was calculated as the VCO2/VO2 ratio and the substrate utilization rates were calculated using Frayn’s formula[51]: rate of glucose oxidation = 4.585VCO2 − 3.226VO2; rate of fat oxidation = 1.695VO2 − 1.701VCO2. The exercise endurance capacity under treadmill running was determined by measuring the time from the start to the time until the mice ceased to run because of exhaustion, which was defined as remaining on the shocker plate for more than 10 sec. Immediately after the exercise, the blood glucose and lactate levels were measured using Glutest Every and Lactate Pro2 (ARKRAY, Kyoto, Japan), respectively, in blood samples collected from the tail vein.

For `COc1ccc2c(C)c(C(=O)O)ccc2c1C1C2=C(CC(C)(C)CC2=O)OC2=C1C(=O)CC(C)(C)C2` [DS20060511], the Fat oxodation (0 min) was 42.7 mg/min/kg and 29.8 mg/min/kg and 47.9 mg/min/kg and 33.8 mg/min/kg and 28.5 mg/min/kg and 27.7 mg/min/kg and 40.5 mg/min/kg, the Gluocse oxdation (0 min) was 18.2 mg/min/kg and 55.1 mg/min/kg and 66.4 mg/min/kg and 36.8 mg/min/kg and 34.2 mg/min/kg and 39.5 mg/min/kg and 42.0 mg/min/kg and the Fat oxodation (1 min) was 45.5 mg/min/kg and 32.2 mg/min/kg and 46.7 mg/min/kg and 25.3 mg/min/kg and 20.1 mg/min/kg and 30.2 mg/min/kg and 37.1 mg/min/kg. The Gluocse oxdation (1 min) was 18.2 mg/min/kg and 57.0 mg/min/kg and 57.7 mg/min/kg and 34.5 mg/min/kg (2×) and 40.4 mg/min/kg and 38.9 mg/min/kg, the Fat oxodation (16 min) was 38.4 mg/min/kg and 25.4 mg/min/kg and 30.2 mg/min/kg and 38.0 mg/min/kg and 21.2 mg/min/kg and the Gluocse oxdation (16 min) was 36.7 mg/min/kg and 23.9 mg/min/kg and 103.8 mg/min/kg and 50.6 mg/min/kg and 64.1 mg/min/kg. The Fat oxodation (17 min) was 38.9 mg/min/kg and 22.8 mg/min/kg and 33.5 mg/min/kg and 17.9 mg/min/kg and 29.7 mg/min/kg and 34.5 mg/min/kg and 23.7 mg/min/kg, the Gluocse oxdation (17 min) was 48.6 mg/min/kg and 86.9 mg/min/kg and 38.0 mg/min/kg and 37.9 mg/min/kg and 99.3 mg/min/kg and 64.2 mg/min/kg and 65.1 mg/min/kg and the Fat oxodation (18 min) was 40.3 mg/min/kg and 23.4 mg/min/kg and 38.3 mg/min/kg and 26.5 mg/min/kg and 28.8 mg/min/kg and 33.0 mg/min/kg and 27.0 mg/min/kg. The Gluocse oxdation (18 min) was 37.9 mg/min/kg and 72.9 mg/min/kg and 38.8 mg/min/kg and 44.8 mg/min/kg and 96.1 mg/min/kg and 56.1 mg/min/kg and 63.5 mg/min/kg, the Fat oxodation (19 min) was 38.2 mg/min/kg and 24.7 mg/min/kg and 37.3 mg/min/kg and 29.3 mg/min/kg and 31.6 mg/min/kg and 29.6 mg/min/kg and 25.9 mg/min/kg and the Gluocse oxdation (19 min) was 37.9 mg/min/kg (2×) and 65.0 mg/min/kg and 47.7 mg/min/kg and 99.0 mg/min/kg and 59.5 mg/min/kg and 62.0 mg/min/kg. For the same compound, the Fat oxodation (20 min) was 42.4 mg/min/kg and 24.3 mg/min/kg and 36.1 mg/min/kg and 27.9 mg/min/kg and 29.4 mg/min/kg and 31.1 mg/min/kg and 29.1 mg/min/kg, the Gluocse oxdation (20 min) was 46.0 mg/min/kg and 64.7 mg/min/kg and 41.4 mg/min/kg and 45.0 mg/min/kg and 88.2 mg/min/kg and 50.3 mg/min/kg and 68.8 mg/min/kg and the Fat oxodation (21 min) was 43.1 mg/min/kg (2×) and 26.1 mg/min/kg and 36.5 mg/min/kg and 28.8 mg/min/kg and 31.2 mg/min/kg and 29.3 mg/min/kg. The Gluocse oxdation (21 min) was 45.1 mg/min/kg and 69.4 mg/min/kg and 17.2 mg/min/kg and 44.6 mg/min/kg and 91.1 mg/min/kg and 48.9 mg/min/kg and 61.3 mg/min/kg, the Fat oxodation (22 min) was 40.9 mg/min/kg and 25.6 mg/min/kg and 37.2 mg/min/kg and 27.2 mg/min/kg and 24.3 mg/min/kg and 32.2 mg/min/kg and 32.3 mg/min/kg and the Gluocse oxdation (22 min) was 42.7 mg/min/kg and 66.9 mg/min/kg and 72.1 mg/min/kg and 40.1 mg/min/kg and 86.1 mg/min/kg and 55.3 mg/min/kg and 60.9 mg/min/kg. For the same compound, the Fat oxodation (23 min) was 41.8 mg/min/kg and 24.9 mg/min/kg and 36.6 mg/min/kg and 28.2 mg/min/kg and 26.0 mg/min/kg and 32.9 mg/min/kg and 33.1 mg/min/kg, the Gluocse oxdation (23 min) was 46.5 mg/min/kg and 66.1 mg/min/kg and 71.0 mg/min/kg and 35.9 mg/min/kg and 82.6 mg/min/kg and 57.0 mg/min/kg and 70.8 mg/min/kg and the Fat oxodation (24 min) was 33.9 mg/min/kg and 23.5 mg/min/kg and 37.4 mg/min/kg and 29.0 mg/min/kg and 25.1 mg/min/kg and 30.0 mg/min/kg and 34.8 mg/min/kg. For the same compound, the Gluocse oxdation (24 min) was 45.3 mg/min/kg and 67.2 mg/min/kg and 83.8 mg/min/kg and 41.3 mg/min/kg and 80.6 mg/min/kg and 69.0 mg/min/kg and 78.3 mg/min/kg, the Fat oxodation (25 min) was 36.1 mg/min/kg and 21.7 mg/min/kg and 35.1 mg/min/kg and 28.1 mg/min/kg and 23.9 mg/min/kg and 34.1 mg/min/kg and 36.7 mg/min/kg and the Gluocse oxdation (25 min) was 50.1 mg/min/kg and 70.7 mg/min/kg and 85.4 mg/min/kg and 36.9 mg/min/kg and 76.2 mg/min/kg and 59.5 mg/min/kg and 96.1 mg/min/kg. For the same compound, the Fat oxodation (26 min) was 28.4 mg/min/kg and 20.3 mg/min/kg and 29.6 mg/min/kg and 24.4 mg/min/kg and 21.1 mg/min/kg and 32.4 mg/min/kg and 38.4 mg/min/kg, the Gluocse oxdation (26 min) was 66.4 mg/min/kg and 74.7 mg/min/kg and 93.6 mg/min/kg and 41.2 mg/min/kg and 67.8 mg/min/kg and 88.6 mg/min/kg and 105.2 mg/min/kg and the Fat oxodation (27 min) was 24.4 mg/min/kg and 22.5 mg/min/kg and 34.6 mg/min/kg and 27.5 mg/min/kg and 19.7 mg/min/kg and 33.1 mg/min/kg and 40.1 mg/min/kg. The Gluocse oxdation (27 min) was 58.3 mg/min/kg and 72.5 mg/min/kg and 93.5 mg/min/kg and 42.8 mg/min/kg and 66.4 mg/min/kg and 103.0 mg/min/kg and 99.1 mg/min/kg, the Fat oxodation (28 min) was 26.1 mg/min/kg and 22.8 mg/min/kg and 34.8 mg/min/kg and 23.3 mg/min/kg and 25.3 mg/min/kg and 31.3 mg/min/kg and 43.2 mg/min/kg and the Gluocse oxdation (28 min) was 54.9 mg/min/kg and 81.2 mg/min/kg and 82.8 mg/min/kg and 41.8 mg/min/kg and 58.6 mg/min/kg and 98.4 mg/min/kg and 101.3 mg/min/kg. The Fat oxodation (29 min) was 24.1 mg/min/kg and 23.3 mg/min/kg and 32.2 mg/min/kg and 29.5 mg/min/kg and 26.1 mg/min/kg and 29.8 mg/min/kg and 41.3 mg/min/kg, the Gluocse oxdation (29 min) was 53.7 mg/min/kg and 64.9 mg/min/kg and 83.3 mg/min/kg and 43.6 mg/min/kg and 59.4 mg/min/kg and 112.5 mg/min/kg and 100.4 mg/min/kg and the Fat oxodation (30 min) was 24.2 mg/min/kg and 23.4 mg/min/kg and 32.6 mg/min/kg and 26.5 mg/min/kg and 27.5 mg/min/kg and 26.4 mg/min/kg and 42.4 mg/min/kg. The Gluocse oxdation (30 min) was 63.6 mg/min/kg and 71.9 mg/min/kg and 80.1 mg/min/kg and 55.3 mg/min/kg and 50.6 mg/min/kg and 117.8 mg/min/kg and 102.1 mg/min/kg, the “CO2 Production (VCO2)” value (0 min) was 89.5 ml/min/kg (2×) and 73.3 ml/min/kg and 81.2 ml/min/kg and 88.5 ml/min/kg and 66.4 ml/min/kg and 82.5 ml/min/kg and the “O2 Consumption (VO2)” value (0 min) was 109.7 ml/min/kg and 108.8 ml/min/kg and 106.7 ml/min/kg (2×) and 83.0 ml/min/kg and 115.0 ml/min/kg and 91.2 ml/min/kg. The Respiratory quotient (0 min) was 0.78 and 0.80 (2×) and 0.74 and 0.81 and 0.84 and 0.77, the “CO2 Production (VCO2)” value (1 min) was 94.2 ml/min/kg and 74.4 ml/min/kg and 79.5 ml/min/kg and 78.1 ml/min/kg (2×) and 71.1 ml/min/kg and 68.3 ml/min/kg and the “O2 Consumption (VO2)” value (1 min) was 107.3 mL/min/kg and 93.3 mL/min/kg and 83.2 mL/min/kg and 86.4 mL/min/kg and 100.3 mL/min/kg and 121.4 mL/min/kg and 93.7 mL/min/kg. For the same compound, the Respiratory quotient (1 min) was 0.78 (2×) and 0.79 (2×) and 0.74 and 0.84 and 0.85, the “CO2 Production (VCO2)” value (16 min) was 80.6 mL/min/kg and 93.3 mL/min/kg and 69.8 mL/min/kg and 71.4 mL/min/kg and 106.9 mL/min/kg and the “O2 Consumption (VO2)” value (16 min) was 87.9 mL/min/kg and 94.1 mL/min/kg and 119.8 mL/min/kg and 124.8 mL/min/kg and 97.3 mL/min/kg.

— publication PMC8379256, “A xanthene derivative, DS20060511, attenuates glucose intolerance by inducing skeletal muscle-specific GLUT4 translocation in mice” (Communications Biology, 2021)
